From paper doi:10.1101/2025.10.24.684417

Amino acid sequences for entries named in this document (tags omitted).
UniProt Q13761: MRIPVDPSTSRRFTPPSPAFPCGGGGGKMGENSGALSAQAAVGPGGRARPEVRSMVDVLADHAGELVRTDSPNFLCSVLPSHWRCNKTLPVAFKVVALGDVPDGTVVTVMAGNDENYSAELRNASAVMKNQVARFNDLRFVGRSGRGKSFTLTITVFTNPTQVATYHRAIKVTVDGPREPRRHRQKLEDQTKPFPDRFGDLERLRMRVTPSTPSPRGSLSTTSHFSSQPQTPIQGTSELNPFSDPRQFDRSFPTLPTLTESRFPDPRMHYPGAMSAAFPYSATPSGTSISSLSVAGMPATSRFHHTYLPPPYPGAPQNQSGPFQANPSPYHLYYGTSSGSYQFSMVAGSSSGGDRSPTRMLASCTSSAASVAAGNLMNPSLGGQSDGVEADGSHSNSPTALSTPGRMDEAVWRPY
UniProt P51532: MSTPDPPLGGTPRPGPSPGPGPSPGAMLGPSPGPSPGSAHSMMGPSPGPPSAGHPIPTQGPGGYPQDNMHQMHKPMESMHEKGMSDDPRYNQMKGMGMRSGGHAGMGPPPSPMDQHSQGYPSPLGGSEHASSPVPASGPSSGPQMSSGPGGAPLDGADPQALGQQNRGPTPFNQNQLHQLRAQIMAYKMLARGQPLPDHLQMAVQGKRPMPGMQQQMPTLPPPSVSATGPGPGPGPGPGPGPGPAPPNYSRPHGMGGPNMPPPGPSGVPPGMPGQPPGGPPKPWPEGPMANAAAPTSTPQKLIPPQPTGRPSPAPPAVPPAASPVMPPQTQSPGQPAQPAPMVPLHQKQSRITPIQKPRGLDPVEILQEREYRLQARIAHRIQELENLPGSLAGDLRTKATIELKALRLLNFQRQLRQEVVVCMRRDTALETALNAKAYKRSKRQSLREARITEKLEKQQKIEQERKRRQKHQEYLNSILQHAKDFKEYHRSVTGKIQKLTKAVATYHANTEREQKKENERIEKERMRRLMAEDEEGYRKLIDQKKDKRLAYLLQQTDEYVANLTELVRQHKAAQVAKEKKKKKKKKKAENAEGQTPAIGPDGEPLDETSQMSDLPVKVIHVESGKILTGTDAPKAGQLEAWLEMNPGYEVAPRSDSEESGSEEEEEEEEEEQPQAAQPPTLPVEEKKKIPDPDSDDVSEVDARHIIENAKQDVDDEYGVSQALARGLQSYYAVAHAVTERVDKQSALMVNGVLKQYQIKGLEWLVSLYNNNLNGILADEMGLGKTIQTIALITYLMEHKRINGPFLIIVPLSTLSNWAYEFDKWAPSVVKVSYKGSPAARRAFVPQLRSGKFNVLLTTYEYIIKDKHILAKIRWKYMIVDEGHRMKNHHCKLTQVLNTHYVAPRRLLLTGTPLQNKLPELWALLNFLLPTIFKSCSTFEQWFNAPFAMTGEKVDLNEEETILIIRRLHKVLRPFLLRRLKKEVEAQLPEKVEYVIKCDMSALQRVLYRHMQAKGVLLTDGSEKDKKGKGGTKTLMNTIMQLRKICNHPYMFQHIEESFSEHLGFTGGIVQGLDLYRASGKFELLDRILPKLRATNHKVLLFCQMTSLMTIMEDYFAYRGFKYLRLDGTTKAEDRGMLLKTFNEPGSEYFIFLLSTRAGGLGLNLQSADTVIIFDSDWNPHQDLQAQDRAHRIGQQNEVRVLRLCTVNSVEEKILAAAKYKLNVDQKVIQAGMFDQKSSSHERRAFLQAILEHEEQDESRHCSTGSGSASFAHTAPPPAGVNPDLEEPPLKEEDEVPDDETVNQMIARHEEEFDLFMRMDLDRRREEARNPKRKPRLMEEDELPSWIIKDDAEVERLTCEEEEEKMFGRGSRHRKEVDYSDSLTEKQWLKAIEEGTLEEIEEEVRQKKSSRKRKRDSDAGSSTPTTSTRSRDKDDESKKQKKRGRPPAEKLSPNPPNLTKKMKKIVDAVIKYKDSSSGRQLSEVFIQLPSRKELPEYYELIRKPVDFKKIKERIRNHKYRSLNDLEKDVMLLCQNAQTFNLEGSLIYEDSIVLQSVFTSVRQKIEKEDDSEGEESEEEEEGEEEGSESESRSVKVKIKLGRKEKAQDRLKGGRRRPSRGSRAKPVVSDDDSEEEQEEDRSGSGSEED

Biological target: RUNX3-TurboID, expressed in HEK293T cells (UniProt Q13761)
Assay: proximity labelling

binding: binds
Substance: BRG1 (from UniProt P51532 1-1647)

No constants are given. Whether binding was seen depends on the method and setting. Binding seen in cells or lysates may run through a third protein. A yes stands for co-enrichment or nearness to the bait. Other partners may have been found.
